Assay results taken from the supplement of paper PMC4604168 (melanoma cell lines).
The other results are listed elsewhere or left out. Many values rest on one well or one pass, so single values are uncertain.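 Cells were imaged in 1,536-well plates, and nuclei stained with an antibody against cleaved PARP were counted against all DNA-stained nuclei to give the apoptosis fraction. Screening doses were chosen to leave most cells alive, and resting and induced cleaved-PARP levels differ strongly between cell lines.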

Columns and labels:
Test in all cases: cleaved PARP positive nuclei fraction relative to DMSO control; melanoma cells; higher = more apoptosis
Settings in all cases: library dose: low library concentration; 72 h
MZ2-MEL = tested on: MZ2-MEL
MeWo = tested on: MeWo
RPMI7951 = tested on: RPMI7951
RVH-421 = tested on: RVH-421
SkMel28 = tested on: SkMel28
SkMel2 = tested on: SkMel2
SkMel30 = tested on: SkMel30
SkMel5 = tested on: SkMel5
UACC257 = tested on: UACC257
UACC62 = tested on: UACC62

| SMILES | cleaved PARP positive nuclei fraction (MZ2-MEL) | cleaved PARP positive nuclei fraction (MeWo) | cleaved PARP positive nuclei fraction (RPMI7951) | cleaved PARP positive nuclei fraction (RVH-421) | cleaved PARP positive nuclei fraction (SkMel28) | cleaved PARP positive nuclei fraction (SkMel2) | cleaved PARP positive nuclei fraction (SkMel30) | cleaved PARP positive nuclei fraction (SkMel5) | cleaved PARP positive nuclei fraction (UACC257) | cleaved PARP positive nuclei fraction (UACC62) |
| --- | --- | --- | --- | --- | --- | --- | --- | --- | --- | --- |
| Cn1c(Nc2ccc(C(F)(F)F)cc2)nc2cc(Oc3ccnc(-c4ncc(C(F)(F)F)[nH]4)c3)ccc21 + CN(C)S(=O)(=O)c1ccc2c(c1)/C(=C/c1cc3c([nH]1)CCCC3)C(=O)N2 [SU6656] (first compound 0.08 µM, partner dose 0.4 µM) | 222% | 198% | 163% | 365% | 116% | 126% | 159% | 103% | 543% | 228% |
| Cc1nc(Nc2ncc(C(=O)Nc3c(C)cccc3Cl)s2)cc(N2CCN(CCO)CC2)n1 [dasatanib] + CN(NC(=O)CC(=O)NN(C)C(=S)c1ccccc1)C(=S)c1ccccc1 [STA4783] (first compound 0.004 µM, partner dose 0.006 µM) | 56.5% | 111% | 84.7% | 106% | 77.5% | 49.9% | 91.9% | 71.8% | 139% | 214% |
| CC(C)(C)c1cnc(CSc2cnc(NC(=O)C3CCNCC3)s2)o1 + C[C@@H]1CCN(C(=O)CC#N)C[C@@H]1N(C)c1ncnc2[nH]ccc12 [CP690550] (first compound 0.01 µM, partner dose 1 µM) | 112% | 106% | 95.1% | 108% | 83.7% | 112% | 69.9% | 32.1% | 137% | 242% |
| C[C@]1(c2nc3c(C(N)=O)cccc3[nH]2)CCCN1 [Veliparib] + O=C(Nc1cccc(Cl)c1)Nc1ncc(CCNc2ncnc3ccsc23)s1 [SNS314] (first compound 1.4 µM, partner dose 0.0008 µM) | 153% | 89.8% | 149% | 123% | 260% | 110% | 61.8% | 136% | 170% | 97.1% |
| O=C(CCCCCCC(=O)Nc1ccccc1)NO [vorinostat] + O=C(O)c1ccc(-c2c[nH]c3ncc(-c4ccccc4)cc23)cc1C1CCCC1 [GSK650394] (first compound 0.08 µM, partner dose 0.16 µM) | 109% | 119% | 98.3% | 113% | 69.8% | 81% | 66% | 63.4% | 141% | 395% |
| Cn1c(Nc2ccc(C(F)(F)F)cc2)nc2cc(Oc3ccnc(-c4ncc(C(F)(F)F)[nH]4)c3)ccc21 + O=C(Nc1cccc(Cl)c1)Nc1ncc(CCNc2ncnc3ccsc23)s1 [SNS314] (first compound 0.08 µM, partner dose 0.0008 µM) | 137% | 230% | 111% | 111% | 173% | 196% | 155% | 193% | 1100% | 565% |
| Clc1ccc(Nc2nnc(Cc3ccncc3)c3ccccc23)cc1 [vatalanib] + CO[C@@H]1[C@H](N(C)C(=O)c2ccccc2)C[C@H]2O[C@]1(C)n1c3ccccc3c3c4c(c5c6ccccc6n2c5c31)C(=O)NC4 [Midostaurin] (first compound 2 µM, partner dose 0.08 µM) | 265% | 147% | 52.7% | 93% | 133% | 119% | 56.4% | 90.6% | 130% | 183% |
| C=CCNC1=C2C[C@@H](C)C[C@H](OC)[C@H](O)[C@@H](C)/C=C(\C)[C@H](OC(N)=O)[C@@H](OC)/C=C\C=C(/C)C(=O)NC(=CC1=O)C2=O [Tanespimycin] + Oc1nc(-c2ccc(C(F)(F)F)cc2)nc2c1CSCC2 [XAV939] (first compound 0.002 µM, partner dose 2 µM) | 63.7% | 71.2% | 85.1% | 140% | 166% | 80.2% | 39.2% | 84.2% | 277% | 95.7% |
| Cc1ccc(NC(=O)c2cccc(N(C)C)c2)cc1NC(=O)c1ccc(O)cc1 + NCC(=O)Nc1ccc(-n2nc(C(F)(F)F)cc2-c2ccc3c(ccc4ccccc43)c2)cc1 [OSU03012] (first compound 2 µM, partner dose 1 µM) | 155% | 633% | 41.5% | 112% | 47.6% | 112% | 492% | 56.3% | 382% | 248% |
| Clc1ccc(Nc2nnc(Cc3ccncc3)c3ccccc23)cc1 [vatalanib] + COc1cc(N2CCC(N3CCN(C)CC3)CC2)ccc1Nc1ncc(Cl)c(Nc2ccccc2S(=O)(=O)C(C)C)n1 [NVP-TAE684] (first compound 2 µM, partner dose 0.08 µM) | 75.6% | 156% | 41.1% | 178% | 146% | 114% | 115% | 39.5% | 123% | 287% |
| Cc1ccc(NC(=O)c2cccc(N(C)C)c2)cc1NC(=O)c1ccc(O)cc1 + NC(=O)Nc1cc(-c2cccc(F)c2)sc1C(=O)N[C@H]1CCCNC1 [AZD7762] (first compound 2 µM, partner dose 0.02 µM) | 159% | 63.2% | 89.3% | 51.1% | 83.6% | 78.2% | 31.5% | 36.1% | 21.3% | 102% |
| Clc1ccc(Nc2nnc(Cc3ccncc3)c3ccccc23)cc1 [vatalanib] + OCCn1cc(-c2cnc3nnn(Cc4ccc5ncccc5c4)c3n2)cn1 [PF04217903] (first compound 2 µM, partner dose 1 µM) | 102% | 110% | 96.5% | 94.2% | 162% | 125% | 120% | 104% | 40.7% | 46.3% |
| COCC[n+]1c2c(n(Cc3cnccn3)c1C)C(=O)c1ccccc1C2=O + Cc1cc(N2CCOCC2)cc2[nH]c(-c3c(NC[C@@H](O)c4cccc(Cl)c4)cc[nH]c3=O)nc12 [BMS536924] (first compound 0.0004 µM, partner dose 0.2 µM) | 233% | 122% | 147% | 98% | 270% | 227% | 96.7% | 232% | 147% | 109% |
| COCC[n+]1c2c(n(Cc3cnccn3)c1C)C(=O)c1ccccc1C2=O + O=C(Nc1cccc(Cl)c1)Nc1ncc(CCNc2ncnc3ccsc23)s1 [SNS314] (first compound 0.0004 µM, partner dose 0.0008 µM) | 192% | 57.6% | 311% | 71.1% | 121% | 111% | 88.8% | 223% | 160% | 69.4% |
| C#Cc1cccc(Nc2ncnc3cc(OCCOC)c(OCCOC)cc23)c1 [erlotinib] + Cn1cncc1[C@@](N)(c1ccc(Cl)cc1)c1ccc2c(c1)c(-c1cccc(Cl)c1)cc(=O)n2C [tipifarnib] (first compound 0.8 µM, partner dose 0.01 µM) | 76.8% | 375% | 55.2% | 63.9% | 76.9% | 79.2% | 162% | 212% | 102% | 240% |
| Clc1ccc(Nc2nnc(Cc3ccncc3)c3ccccc23)cc1 [vatalanib] + O=c1cc(-c2cccc3c2Sc2ccccc2S3)oc(N2CCOCC2)c1 [KU55933] (first compound 2 µM, partner dose 1 µM) | 92.2% | 105% | 47.8% | 52.7% | 87.4% | 54.2% | 46.8% | 231% | 111% | 81.9% |
| OCc1c[nH]c2ccccc12 [Indole-3-carbinol] + O=C(Nc1ccccc1)c1cc([N+](=O)[O-])ccc1Cl [GW9662] (first compound 0.8 µM, partner dose 2 µM) | 61.8% | 140% | 198% | 119% | 275% | 72.9% | 73.8% | 69.6% | 67.3% | 31.7% |
| Cc1ccc(NC(=O)c2cccc(N(C)C)c2)cc1NC(=O)c1ccc(O)cc1 + Cn1cncc1[C@@](N)(c1ccc(Cl)cc1)c1ccc2c(c1)c(-c1cccc(Cl)c1)cc(=O)n2C [tipifarnib] (first compound 2 µM, partner dose 0.01 µM) | 70.3% | 43% | 110% | 169% | 104% | 101% | 79.6% | 102% | 133% | 110% |
| C=CCNC1=C2C[C@@H](C)C[C@H](OC)[C@H](O)[C@@H](C)/C=C(\C)[C@H](OC(N)=O)[C@@H](OC)/C=C\C=C(/C)C(=O)NC(=CC1=O)C2=O [Tanespimycin] + COc1cc(N2CCC(N3CCN(C)CC3)CC2)ccc1Nc1ncc(Cl)c(Nc2ccccc2S(=O)(=O)C(C)C)n1 [NVP-TAE684] (first compound 0.002 µM, partner dose 0.08 µM) | 95.5% | 126% | 106% | 193% | 67.7% | 76.4% | 44.3% | 94.3% | 286% | 52.8% |
| OCc1c[nH]c2ccccc12 [Indole-3-carbinol] + C[C@@H]1CCN(C(=O)CC#N)C[C@@H]1N(C)c1ncnc2[nH]ccc12 [CP690550] (first compound 0.8 µM, partner dose 1 µM) | 96.4% | 98.3% | 45.3% | 44.7% | 56.2% | 60.3% | 58.2% | 69.9% | 114% | 199% |
| Clc1ccc(Nc2nnc(Cc3ccncc3)c3ccccc23)cc1 [vatalanib] + COC(=O)c1sccc1S(=O)(=O)Nc1ccc(Nc2ccccc2)cc1OC [GSK0660] (first compound 2 µM, partner dose 1 µM) | 131% | 131% | 99.6% | 74.7% | 140% | 50.3% | 56.7% | 141% | 126% | 107% |
| Clc1ccc(Nc2nnc(Cc3ccncc3)c3ccccc23)cc1 [vatalanib] + CCCCCCCCCCCC1=C(O)C(=O)C=C(O)C1=O [Embelin] (first compound 2 µM, partner dose 1.2 µM) | 39.6% | 116% | 263% | 68.3% | 104% | 102% | 18.9% | 139% | 142% | 336% |
| Cn1nnc2c(C(N)=O)ncn2c1=O [temozolomide] + COc1cc(Nc2ncc(F)c(Nc3ccc4c(n3)NC(=O)C(C)(C)O4)n2)cc(OC)c1OC [Tamatinib] (first compound 2 µM, partner dose 0.4 µM) | 109% | 267% | 142% | 254% | 471% | 147% | 79.5% | 163% | 80.5% | 189% |

2 successive entries already listed, quoted:

| SMILES | cleaved PARP positive nuclei fraction (MZ2-MEL) | cleaved PARP positive nuclei fraction (MeWo) | cleaved PARP positive nuclei fraction (RPMI7951) | cleaved PARP positive nuclei fraction (RVH-421) | cleaved PARP positive nuclei fraction (SkMel28) | cleaved PARP positive nuclei fraction (SkMel2) | cleaved PARP positive nuclei fraction (SkMel30) | cleaved PARP positive nuclei fraction (SkMel5) | cleaved PARP positive nuclei fraction (UACC257) | cleaved PARP positive nuclei fraction (UACC62) |
| --- | --- | --- | --- | --- | --- | --- | --- | --- | --- | --- |
| COCC[n+]1c2c(n(Cc3cnccn3)c1C)C(=O)c1ccccc1C2=O + Cc1cc(N2CCOCC2)cc2[nH]c(-c3c(NC[C@@H](O)c4cccc(Cl)c4)cc[nH]c3=O)nc12 [BMS536924] (first compound 0.0004 µM, partner dose 0.2 µM) | 233% | 122% | 147% | 98% | 270% | 227% | 96.7% | 232% | 147% | 109% |
| COCC[n+]1c2c(n(Cc3cnccn3)c1C)C(=O)c1ccccc1C2=O + O=C(Nc1cccc(Cl)c1)Nc1ncc(CCNc2ncnc3ccsc23)s1 [SNS314] (first compound 0.0004 µM, partner dose 0.0008 µM) | 192% | 57.6% | 311% | 71.1% | 121% | 111% | 88.8% | 223% | 160% | 69.4% |
